Measured values as given in the supplement of paper PMC10849652.
The other results are listed elsewhere or left out.

Sequences of proteins named here, by UniProt entry; tags and fusion partners are left off. A change or cut given only in a name is not applied to a line headed by its entry.
UniProt Q13901: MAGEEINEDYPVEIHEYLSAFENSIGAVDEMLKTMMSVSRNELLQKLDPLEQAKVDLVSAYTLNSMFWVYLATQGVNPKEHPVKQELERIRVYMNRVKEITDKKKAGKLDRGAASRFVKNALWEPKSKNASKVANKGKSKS
UniProt Q9Y2V0: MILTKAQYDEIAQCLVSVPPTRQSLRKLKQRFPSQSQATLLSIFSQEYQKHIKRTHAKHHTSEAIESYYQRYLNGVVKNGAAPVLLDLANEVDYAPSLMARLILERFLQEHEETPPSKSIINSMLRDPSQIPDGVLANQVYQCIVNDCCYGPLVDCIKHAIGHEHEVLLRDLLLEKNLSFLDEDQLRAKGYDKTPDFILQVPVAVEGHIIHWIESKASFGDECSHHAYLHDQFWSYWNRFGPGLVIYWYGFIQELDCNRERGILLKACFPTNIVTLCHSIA
UniProt O75155: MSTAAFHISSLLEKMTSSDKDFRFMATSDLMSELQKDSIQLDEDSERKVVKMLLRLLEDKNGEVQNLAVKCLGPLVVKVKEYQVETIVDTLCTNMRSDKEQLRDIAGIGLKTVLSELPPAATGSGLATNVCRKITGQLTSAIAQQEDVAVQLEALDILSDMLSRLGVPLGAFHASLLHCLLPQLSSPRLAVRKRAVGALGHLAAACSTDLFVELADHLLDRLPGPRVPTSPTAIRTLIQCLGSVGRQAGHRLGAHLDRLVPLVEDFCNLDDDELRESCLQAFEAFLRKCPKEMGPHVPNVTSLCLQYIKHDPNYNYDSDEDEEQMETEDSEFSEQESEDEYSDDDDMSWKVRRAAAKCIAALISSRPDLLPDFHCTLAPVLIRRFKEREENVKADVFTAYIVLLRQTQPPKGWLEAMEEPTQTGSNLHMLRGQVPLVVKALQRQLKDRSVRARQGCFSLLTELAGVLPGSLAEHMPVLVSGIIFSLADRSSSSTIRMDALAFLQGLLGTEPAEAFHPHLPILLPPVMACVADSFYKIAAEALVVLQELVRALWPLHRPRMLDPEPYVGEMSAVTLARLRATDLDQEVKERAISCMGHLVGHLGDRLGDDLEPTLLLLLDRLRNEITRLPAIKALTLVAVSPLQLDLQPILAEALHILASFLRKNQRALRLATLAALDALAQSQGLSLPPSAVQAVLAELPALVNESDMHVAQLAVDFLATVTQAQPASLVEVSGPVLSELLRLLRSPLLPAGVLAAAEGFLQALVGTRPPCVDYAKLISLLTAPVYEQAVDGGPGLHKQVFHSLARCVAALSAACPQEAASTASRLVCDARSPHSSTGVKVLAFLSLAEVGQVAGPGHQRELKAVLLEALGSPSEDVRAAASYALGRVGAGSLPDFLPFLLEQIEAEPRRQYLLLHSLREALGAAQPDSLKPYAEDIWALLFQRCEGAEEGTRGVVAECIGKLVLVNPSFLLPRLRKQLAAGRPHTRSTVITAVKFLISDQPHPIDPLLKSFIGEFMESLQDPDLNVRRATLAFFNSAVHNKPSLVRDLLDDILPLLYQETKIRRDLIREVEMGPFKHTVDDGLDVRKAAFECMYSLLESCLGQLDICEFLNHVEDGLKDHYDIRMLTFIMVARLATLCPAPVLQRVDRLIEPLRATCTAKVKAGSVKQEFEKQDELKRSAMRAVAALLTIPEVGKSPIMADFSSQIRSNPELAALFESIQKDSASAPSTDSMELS
UniProt Q14012: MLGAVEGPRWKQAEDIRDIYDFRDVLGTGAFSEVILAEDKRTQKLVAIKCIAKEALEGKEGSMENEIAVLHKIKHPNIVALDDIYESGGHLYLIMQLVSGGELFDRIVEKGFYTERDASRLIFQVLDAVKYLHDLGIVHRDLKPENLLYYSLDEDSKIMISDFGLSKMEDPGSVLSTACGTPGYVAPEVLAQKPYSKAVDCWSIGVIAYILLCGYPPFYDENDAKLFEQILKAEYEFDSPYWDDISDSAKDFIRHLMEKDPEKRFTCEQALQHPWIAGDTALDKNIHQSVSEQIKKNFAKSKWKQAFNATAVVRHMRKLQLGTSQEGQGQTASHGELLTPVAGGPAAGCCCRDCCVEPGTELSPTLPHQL
UniProt Q9H8G2: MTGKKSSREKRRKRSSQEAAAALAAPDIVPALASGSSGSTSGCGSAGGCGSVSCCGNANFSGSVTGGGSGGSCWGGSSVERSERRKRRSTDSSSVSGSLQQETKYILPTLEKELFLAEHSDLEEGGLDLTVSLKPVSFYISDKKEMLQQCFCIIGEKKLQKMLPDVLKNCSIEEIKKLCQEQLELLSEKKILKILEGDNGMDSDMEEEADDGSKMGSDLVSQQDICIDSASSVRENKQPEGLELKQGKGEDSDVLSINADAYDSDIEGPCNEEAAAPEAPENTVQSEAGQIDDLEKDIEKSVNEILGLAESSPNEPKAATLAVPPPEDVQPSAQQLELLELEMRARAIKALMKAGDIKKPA
UniProt Q9H7E9: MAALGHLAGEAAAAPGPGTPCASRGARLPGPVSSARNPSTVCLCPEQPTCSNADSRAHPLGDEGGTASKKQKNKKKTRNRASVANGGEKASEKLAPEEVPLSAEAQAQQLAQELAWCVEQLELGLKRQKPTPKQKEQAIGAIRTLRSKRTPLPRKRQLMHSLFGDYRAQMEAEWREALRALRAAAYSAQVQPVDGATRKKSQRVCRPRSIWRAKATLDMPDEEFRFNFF
UniProt P07384: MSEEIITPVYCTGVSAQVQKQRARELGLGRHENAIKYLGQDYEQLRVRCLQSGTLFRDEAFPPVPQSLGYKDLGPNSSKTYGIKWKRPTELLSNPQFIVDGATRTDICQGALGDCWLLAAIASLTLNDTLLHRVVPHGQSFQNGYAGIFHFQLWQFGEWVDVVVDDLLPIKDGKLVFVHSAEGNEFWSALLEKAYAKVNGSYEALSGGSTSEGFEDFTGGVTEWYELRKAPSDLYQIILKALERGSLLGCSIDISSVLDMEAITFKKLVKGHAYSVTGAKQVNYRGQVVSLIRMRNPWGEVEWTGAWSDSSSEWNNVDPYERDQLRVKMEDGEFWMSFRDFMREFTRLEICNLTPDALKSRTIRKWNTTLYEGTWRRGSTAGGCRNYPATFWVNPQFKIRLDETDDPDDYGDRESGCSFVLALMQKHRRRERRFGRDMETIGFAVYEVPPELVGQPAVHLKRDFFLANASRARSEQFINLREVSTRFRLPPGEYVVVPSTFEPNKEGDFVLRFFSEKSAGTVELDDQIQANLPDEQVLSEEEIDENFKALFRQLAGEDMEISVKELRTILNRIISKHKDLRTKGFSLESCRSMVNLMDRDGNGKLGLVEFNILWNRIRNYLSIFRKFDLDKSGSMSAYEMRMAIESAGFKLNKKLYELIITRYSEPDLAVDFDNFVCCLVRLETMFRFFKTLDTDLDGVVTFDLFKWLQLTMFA
UniProt Q9BPX7: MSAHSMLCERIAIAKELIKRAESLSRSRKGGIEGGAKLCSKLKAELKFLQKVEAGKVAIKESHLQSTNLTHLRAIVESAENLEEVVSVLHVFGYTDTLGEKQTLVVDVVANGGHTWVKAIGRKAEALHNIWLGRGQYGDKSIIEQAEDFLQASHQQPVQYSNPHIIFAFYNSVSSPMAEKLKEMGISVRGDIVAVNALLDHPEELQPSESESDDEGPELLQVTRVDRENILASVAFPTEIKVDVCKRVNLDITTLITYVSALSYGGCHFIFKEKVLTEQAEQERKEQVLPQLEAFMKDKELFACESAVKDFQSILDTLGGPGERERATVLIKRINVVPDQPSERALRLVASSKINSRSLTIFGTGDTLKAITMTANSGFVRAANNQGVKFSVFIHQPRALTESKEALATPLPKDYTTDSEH
UniProt P41223: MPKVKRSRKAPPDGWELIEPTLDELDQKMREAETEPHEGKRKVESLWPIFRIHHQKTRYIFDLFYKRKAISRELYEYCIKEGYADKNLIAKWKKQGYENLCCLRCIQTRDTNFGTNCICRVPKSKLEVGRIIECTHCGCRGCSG
UniProt Q8N1Q1: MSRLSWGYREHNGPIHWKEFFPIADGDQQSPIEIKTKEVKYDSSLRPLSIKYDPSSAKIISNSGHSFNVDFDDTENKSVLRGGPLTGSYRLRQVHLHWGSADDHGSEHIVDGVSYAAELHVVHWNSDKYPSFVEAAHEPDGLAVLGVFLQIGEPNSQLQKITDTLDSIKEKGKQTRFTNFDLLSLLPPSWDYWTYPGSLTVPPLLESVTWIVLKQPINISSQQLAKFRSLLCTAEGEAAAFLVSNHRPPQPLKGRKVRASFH
UniProt Q86YS7: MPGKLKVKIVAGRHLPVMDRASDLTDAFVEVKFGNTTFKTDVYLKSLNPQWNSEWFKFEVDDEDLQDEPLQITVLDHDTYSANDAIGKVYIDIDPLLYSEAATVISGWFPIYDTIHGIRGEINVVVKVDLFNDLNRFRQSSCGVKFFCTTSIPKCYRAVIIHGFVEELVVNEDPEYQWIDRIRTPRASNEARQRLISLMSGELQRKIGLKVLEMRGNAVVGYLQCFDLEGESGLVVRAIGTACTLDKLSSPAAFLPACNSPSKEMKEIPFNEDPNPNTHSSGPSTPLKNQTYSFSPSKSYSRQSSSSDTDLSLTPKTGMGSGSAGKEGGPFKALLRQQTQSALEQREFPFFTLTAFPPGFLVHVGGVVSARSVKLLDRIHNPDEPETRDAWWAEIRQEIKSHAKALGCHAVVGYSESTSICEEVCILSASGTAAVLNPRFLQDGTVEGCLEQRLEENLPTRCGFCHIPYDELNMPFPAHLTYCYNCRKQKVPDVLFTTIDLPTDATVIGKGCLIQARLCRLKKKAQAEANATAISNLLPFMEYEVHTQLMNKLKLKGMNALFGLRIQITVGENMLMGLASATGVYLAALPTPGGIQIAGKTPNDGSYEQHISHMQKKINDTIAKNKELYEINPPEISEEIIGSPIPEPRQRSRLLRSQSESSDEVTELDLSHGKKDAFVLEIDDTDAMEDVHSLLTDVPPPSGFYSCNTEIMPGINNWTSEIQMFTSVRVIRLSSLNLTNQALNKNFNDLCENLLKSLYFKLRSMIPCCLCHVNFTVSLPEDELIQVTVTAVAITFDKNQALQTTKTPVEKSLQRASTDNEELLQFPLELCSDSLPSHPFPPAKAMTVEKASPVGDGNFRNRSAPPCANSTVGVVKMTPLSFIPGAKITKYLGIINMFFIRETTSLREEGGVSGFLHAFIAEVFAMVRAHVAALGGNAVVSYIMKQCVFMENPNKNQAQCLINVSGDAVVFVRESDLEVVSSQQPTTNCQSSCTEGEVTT
UniProt Q96RR4, whole entry, looked up: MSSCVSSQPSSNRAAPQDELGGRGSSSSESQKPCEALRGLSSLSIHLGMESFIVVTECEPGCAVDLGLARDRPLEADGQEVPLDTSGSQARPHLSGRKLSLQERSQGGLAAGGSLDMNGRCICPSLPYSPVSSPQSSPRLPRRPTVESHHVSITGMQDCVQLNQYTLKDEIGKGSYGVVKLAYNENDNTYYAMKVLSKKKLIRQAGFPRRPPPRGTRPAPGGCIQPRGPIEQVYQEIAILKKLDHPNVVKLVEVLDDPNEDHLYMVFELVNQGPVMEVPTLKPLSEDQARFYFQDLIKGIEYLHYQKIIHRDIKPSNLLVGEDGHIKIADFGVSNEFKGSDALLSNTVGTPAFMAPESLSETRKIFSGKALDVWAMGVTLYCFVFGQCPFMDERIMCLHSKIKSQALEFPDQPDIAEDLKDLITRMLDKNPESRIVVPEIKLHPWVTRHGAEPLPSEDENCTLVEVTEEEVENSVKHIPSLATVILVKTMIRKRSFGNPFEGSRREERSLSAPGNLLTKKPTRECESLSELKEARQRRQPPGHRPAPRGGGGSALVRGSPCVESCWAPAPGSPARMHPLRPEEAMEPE
UniProt Q9H425: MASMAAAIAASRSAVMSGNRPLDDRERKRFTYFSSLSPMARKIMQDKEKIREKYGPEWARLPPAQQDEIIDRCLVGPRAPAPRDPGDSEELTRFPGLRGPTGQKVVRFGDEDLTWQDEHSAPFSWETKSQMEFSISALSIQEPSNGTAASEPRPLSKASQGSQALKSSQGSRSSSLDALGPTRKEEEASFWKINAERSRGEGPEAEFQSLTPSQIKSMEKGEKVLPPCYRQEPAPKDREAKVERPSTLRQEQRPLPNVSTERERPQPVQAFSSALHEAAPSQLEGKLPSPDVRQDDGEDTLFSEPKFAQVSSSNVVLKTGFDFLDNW
UniProt Q07021: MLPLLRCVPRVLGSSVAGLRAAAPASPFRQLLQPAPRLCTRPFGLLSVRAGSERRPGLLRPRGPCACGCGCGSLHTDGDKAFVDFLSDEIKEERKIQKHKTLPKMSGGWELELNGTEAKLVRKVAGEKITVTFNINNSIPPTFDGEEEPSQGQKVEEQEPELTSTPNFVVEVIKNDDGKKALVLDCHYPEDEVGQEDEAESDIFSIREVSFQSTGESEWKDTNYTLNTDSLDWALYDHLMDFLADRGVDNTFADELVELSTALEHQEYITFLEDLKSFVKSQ
UniProt Q9BRJ6: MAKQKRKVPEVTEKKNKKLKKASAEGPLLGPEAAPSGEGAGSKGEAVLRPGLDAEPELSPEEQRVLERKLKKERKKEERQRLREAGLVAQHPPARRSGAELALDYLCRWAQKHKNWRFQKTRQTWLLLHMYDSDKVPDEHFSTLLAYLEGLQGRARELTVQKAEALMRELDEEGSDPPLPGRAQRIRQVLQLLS

Columns and labels:
Test in all cases: log2 fold change, soluble protein after heating vs DMSO (PISA); higher = thermal stabilisation; K562 lysate, 10 uM; active = over 0.2 and 3.5 SD of the protein, either way, in both replicates (recomputed)
[1] = compound: C#Cc1cccc(Nc2ncnc3cc(OCCOC)c(OCCOC)cc23)c1 [erlotinib]
In short: (§1)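 Following dounce homogenisation of K562 pellets in PBS pH 7.4 with 1 mM MgCl2, crude extract at 1 mg/mL protein was incubated for 30 min with 10 μM compound. Aliquots were then heated for 3 min over 48°C-58°C and pooled, NP-40 was added to 0.5% at 4°C, and soluble protein was recovered as the supernatant at 21,000xg for 90 min. Channel-sum-equalised TMTpro 16plex LC-MS/MS quantified this protein. Each value, from duplicates, is a log-two fold change in thermal stability relative to solvent controls.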

[2] = compound: C/C(=N\NC(=O)C1=CC(=CC=C1)S(=O)(=O)N2CCOCC2)/C3=C(C=CC(=C3)Cl)O
In short: as §1

[3] = compound: C1=CC(=CC=C1C2=NC3=C(N2)C=C(C=C3)C(=O)N)OC4=CC=C(C=C4)Cl
In short: as §1

[4] = compound: C1=CC2=C(C=CC(=C2)/C=C\3/C(=O)NC(=NCC4=CC=CS4)S3)N=C1
In short: as §1

[5] = compound: C1=CC2=NC=CN=C2C=C1/C=C/3\C(=O)NC(=O)S3
In short: as §1

[6] = compound: C1=CC=C(C=C1)C2=NC(=C(N2)C3=CC=NC=C3)C4=CC(=C(C=C4)Cl)O
In short: as §1

[7] = compound: C1=CC=C2C(=C1)C3=NNC4=CC=CC(=C43)C2=O
In short: as §1

[8] = compound: C1CCN(C1)C(=O)NC2=CC=CC(=C2)NC3=NC=C(C(=N3)NCCC4=CN=CN4)Br
In short: as §1

[9] = compound: C1CN(CCC1(CC2=CC=C(C=C2)Cl)N)C3=NC=NC4=C3C=CN4
In short: as §1

[10] = compound: C1COCCN1CCN2C3=CC=CC=C3N=C2NC(=O)C4=CC(=CC=C4)[N+](=O)[O-] [IRAK-1-4 Inhibitor I]
In short: as §1

Measured: log2 fold change

C18orf25 (UniProt Q96B23)
inactive: [1] -0.025 | [2] -0.315 | [3] -0.086 | [4] 0.015 | [5] 0.001 | [6] 0.003 | [7] 0.004 | [8] 0.005 | [9] 0.029 | [10] 0.114

C1D (UniProt Q13901)
inactive: [1] 0.011 | [2] -0.069 | [3] 0 | [4] 0.076 | [5] -0.039 | [6] 0.03 | [7] -0.029 | [8] 0.01 | [9] 0.035 | [10] -0.013

C15orf41 (UniProt Q9Y2V0)
inactive: [1] 0.008 | [2] 0.073 | [3] 0.032 | [4] 0.112 | [5] -0.097 | [6] 0.014 | [7] -0.04 | [8] -0.028 | [9] -0.076 | [10] -0.012

CAND2 (UniProt O75155)
inactive: [1] 0.026 | [2] -0.003 | [3] 0.057 | [4] -0.008 | [5] 0.004 | [6] -0.004 | [7] -0.067 | [8] -0.025 | [9] 0.025 | [10] 0.005

CAMK1 (UniProt Q14012)
inactive: [1] -0.014 | [2] -0.145 | [3] 0.008 | [4] 0 | [5] 0.037 | [6] -0.011 | [7] 0.135 | [8] 0 | [9] 0.016 | [10] 0.107

CAAP1 (UniProt Q9H8G2)
inactive: [1] 0.028 | [2] -0.027 | [3] 0.025 | [4] -0.017 | [5] -0.048 | [6] 0.032 | [7] -0.038 | [8] 0.025 | [9] 0.023 | [10] -0.007

CALCOCO1 (UniProt Q9P1Z2)
inactive: [1] -0.014 | [2] 0.775 | [3] -0.061 | [4] 0.013 | [5] -0.048 | [6] 0.048 | [7] -0.032 | [8] -0.038 | [9] 0.044 | [10] -0.008

C2orf69 (UniProt Q8N8R5)
inactive: [1] -0.018 | [2] -0.015 | [3] -0.043 | [4] -0.034 | [5] -0.059 | [6] -0.001 | [7] 0.025 | [8] -0.002 | [9] 0.023 | [10] -0.021

CAPRIN1 (UniProt Q14444)
inactive: [1] -0.011 | [2] 0.03 | [3] 0.003 | [4] -0.015 | [5] 0 | [6] 0.024 | [7] 0.018 | [8] -0.015 | [9] -0.025 | [10] 0.019

C8orf33 isoform 2 (UniProt Q9H7E9)
inactive: [1] -0.022 | [2] -0.112 | [3] -0.031 | [4] 0.041 | [5] -0.049 | [6] -0.033 | [7] 0.026 | [8] 0.016 | [9] -0.019 | [10] 0.017

CAPN1 (UniProt P07384)
inactive: [1] -0.034 | [2] -0.037 | [3] 0.014 | [4] 0.025 | [5] -0.007 | [6] -0.016 | [7] 0.012 | [8] -0.054 | [9] -0.023 | [10] 0.014

C7orf25 isoform 2 (UniProt Q9BPX7)
inactive: [1] 0.06 | [2] 0.203 | [3] 0.101 | [4] -0.012 | [5] 0.062 | [6] -0.002 | [7] -0.306 | [8] 0.005 | [9] 0.138 | [10] 0.024

BUD31 (UniProt P41223)
inactive: [1] -0.03 | [2] -0.032 | [3] 0.006 | [4] 0.017 | [5] -0.032 | [6] 0.007 | [7] 0.063 | [8] 0.023 | [9] 0.01 | [10] -0.014

CA13 (UniProt Q8N1Q1)
inactive: [1] 0.057 | [2] 0.054 | [3] -0.038 | [4] -0.012 | [5] -0.052 | [6] -0.013 | [7] 0 | [8] -0.019 | [9] -0.026 | [10] 0.044

C2CD5 isoform 3 (UniProt Q86YS7)
inactive: [1] 0.021 | [2] -0.047 | [3] 0.017 | [4] -0.024 | [5] -0.048 | [6] -0.034 | [7] -0.046 | [8] -0.045 | [9] 0.024 | [10] 0.054

CAMKK2 (UniProt Q96RR4)
inactive: [1] -0.033 | [2] -0.028 | [3] -0.045 | [4] -0.057 | [5] -0.014 | [6] 0.005 | [7] 0.002 | [8] 0.135 | [9] 0.033 | [10] -0.027

CALCOCO2 isoform 4 (UniProt Q13137)
inactive: [1] 0.009 | [2] 0.114 | [3] 0.005 | [4] -0.021 | [5] -0.004 | [6] -0.026 | [7] 0.003 | [8] -0.025 | [9] 0.051 | [10] 0.012

CAP1 (UniProt Q01518)
inactive: [1] 0.017 | [2] 0.047 | [3] -0.004 | [4] 0.01 | [5] 0.008 | [6] -0.052 | [7] 0.034 | [8] -0.013 | [9] -0.004 | [10] 0.001

CALB2 (UniProt P22676)
inactive: [1] 0.021 | [2] 0.045 | [3] -0.04 | [4] -0.103 | [5] -0.077 | [6] 0.02 | [7] 0.043 | [8] 0.056 | [9] 0.065 | [10] 0.08

BUB3 (UniProt O43684)
inactive: [1] -0.02 | [2] 0 | [3] 0.017 | [4] -0.001 | [5] -0.003 | [6] -0.017 | [7] 0.004 | [8] -0.022 | [9] 0.022 | [10] 0.013

BTRC (UniProt Q9Y297)
inactive: [1] 0.002 | [2] 0.085 | [3] -0.078 | [4] 0.001 | [5] 0 | [6] -0.007 | [7] 0.029 | [8] -0.138 | [9] -0.028 | [10] 0.018

CAPZB isoform 2 (UniProt P47756)
inactive: [1] -0.005 | [2] -0.408 | [3] 0.03 | [4] -0.014 | [5] -0.015 | [6] 0.009 | [7] -0.036 | [8] 0.023 | [9] 0.019 | [10] -0.035

C1orf198 (UniProt Q9H425)
inactive: [1] -0.024 | [2] -0.039 | [3] 0.05 | [4] -0.045 | [5] -0.041 | [6] 0.049 | [7] -0.045 | [8] -0.183 | [9] -0.024 | [10] -0.003

C11orf98 (UniProt E9PRG8)
inactive: [1] 0 | [2] -0.447 | [3] 0.01 | [4] -0.042 | [5] 0.01 | [6] 0.01 | [7] 0.035 | [8] 0.012 | [9] -0.007 | [10] -0.021

2 successive records out of the list so far, quoted:
BTRC (UniProt Q9Y297)
inactive: [1] 0.002 | [2] 0.085 | [3] -0.078 | [4] 0.001 | [5] 0 | [6] -0.007 | [7] 0.029 | [8] -0.138 | [9] -0.028 | [10] 0.018

CAPZB isoform 2 (UniProt P47756)
inactive: [1] -0.005 | [2] -0.408 | [3] 0.03 | [4] -0.014 | [5] -0.015 | [6] 0.009 | [7] -0.036 | [8] 0.023 | [9] 0.019 | [10] -0.035

Following part.

C1QBP (UniProt Q07021)
inactive: [1] -0.017 | [2] -0.083 | [3] -0.002 | [4] 0.006 | [5] 0.007 | [6] 0.021 | [7] 0.005 | [8] -0.004 | [9] -0.019 | [10] 0.012

C11orf68 isoform 3 (UniProt Q9H3H3)
inactive: [1] -0.019 | [2] -0.006 | [3] 0.079 | [4] -0.01 | [5] -0.004 | [6] 0.006 | [7] 0.03 | [8] -0.037 | [9] 0.034 | [10] 0.03

C7orf50 (UniProt Q9BRJ6)
inactive: [1] -0.043 | [2] -0.033 | [3] -0.003 | [4] 0.015 | [5] -0.033 | [6] -0.01 | [7] 0.058 | [8] 0.024 | [9] -0.022 | [10] -0.008
